The target of the assay is endothelial nitric oxide (NO) synthase (mouse (endogenous in C57Bl/6 left ventricle)) (UniProt P70313). In words: low-temperature SDS-PAGE (LT-PAGE) with immunoblot; total LV proteins in 5x Laemmli buffer without 2-mercaptoethanol; gels and buffers equilibrated at 4 °C, buffer tank in an ice bath; probed with anti-eNOS antibody; monomer and dimer bands quantified; mice after sham, MI or TAC surgery, sedentary or with eight weeks of voluntary wheel running. (Immunoblotting shows a protein as a band on a membrane.)

These are yes or no findings as the source states them, for the method shown. Some entries that bind do so weakly or less than the wild type.

B1: endothelial nitric oxide (NO) synthase (enzyme, UniProt P70313 1-1202)
chain: MGNLKSVGQEPGPPCGLGLGLGLGLCGKQGPASPAPEPSQAPAPPSPTRPAPDHSPPLTRPPDGPRFPRVKNWEVGSITYDTLSAQAQQDGPCTSRRCLGSLVFPRKLQSRPTQGPSPTEQLLGQARDFINQYYNSIKRSGSQAHEQRLQEVEAEVAATGTYQLRESELVFGAKQAWRNAPRCVGRIQWGKLQVFDARDCRTAQEMFTYICNHIKYATNRGNLRSAITVFPQRCPGRGDFRIWNSQLIRYAGYRQQDGSVRGDPANVEITELCIQHGWTPGNGRFDVLPLLLQAPDEPPELFTLPPEMVLEVPLEHPTLEWFAALGLRWYALPAVSNMLLEIGGLEFPAAPFSGWYMSSEIGMRDLCDPHRYNILEDVAVCMDLDTRTTSSLWKDKAAVEINVAVLHSYQLAKVTIVDHHAATASFMKHLENEQKARGGCPADWAWIVPPISGSLTPVFHQEMVNYFLSPAFRYQPDPWKGSAAKGAGITRKKTFKEVANAVKISASLMGTVMAKRVKATILYGSETGRAQSYAQQLGRLFRKAFDPRVLCMDEYDVVSLEHEALVLVVTSTFGNGDPPENGESFAAALMEMSGPYNSSPRPEQHKSYKIRFNSVSCSDPLVSSWRRKRKESSNTDSAGALGTLRFCVFGLGSRAYPHFCAFARAVDTRLEELGGERLLQLGQGDELCGQEEAFRGWAQAAFQAACETFCVGEDAKAAARDIFSPKRSWKRQRYRLSTQAESLQLLPGLTHVHRRKMFQATILSVENLQSSKSTRATILVRLDTGGQEGLQYQPGDHIGVCPPNRPGLVEALLSRVEDPPPSTEPVAVEQLEKGSPGGPPPGWVRDPRLPPCTLRQALTYFLDITSPPSPRLLRLLSTLAEESSEQQELEALSQDPRRYEEWKWFSCPTLLEVLEQFPSVALPAPLILTQLPLLQPRYYSVSSAPSAHPGEIHLTIAVLAYRTQDGLGPLHYGVCSTWMSQLKAGDPVPCFIRGAPSFRLPPDPNLPCILVGPGTGIAPFRGFWQDRLHDIEIKGLQPAPMTLVFGCRCSQLDHLYRDEVLDAQQRGVFGQVLTAFSRDPGSPKTYVQDLLRTELAAEVHRVLCLEQGHMFVCGDVTMATSVLQTVQRILATEGGMELDEAGDVIGVLRDQQRYHEDIFGLTLRTQEVTSRIRTQSFSLQERQLRGAVPWSFDPPGPEIPGS
Regarding B1, the binding entry is “binds”.

For the origin of these results see publication PMC6073896.
